PubChem BioAssay AID1224830, NIAID – 2016

- Assay: 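Regulators of TLR4 signalling towards TNF-alpha in macrophage-like cells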 (primary screen)
- Cells: human THP-1 monocytic leukaemia cells, TNF dual-luciferase reporter clone, PMA-differentiated to macrophage-like cells
- Reagents: siRNA pool against human genes, 50 nM
- Time to read-out: LPS for 4 h, given about 3 days after siRNA transfection
- Treatment: bacterial LPS (TLR4 ligand), 10 ng/ml
- Detection: 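TNF firefly reporter luminescence divided by renilla, normalised to the plate median, then turned into a robust z-score for each replicate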
- Scale: TNF reporter robust z-score: higher = stronger TNF reporter response to LPS
- Active means: 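a well is active when its z-score exceeds 2.8 or falls below -1.5; control wells carry no call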
The deposit covers about 18,000 reagents; shown is an unselected part. About 2,900 of all reagents (16%) count as active. 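Calls are made per well; low scores hint the gene aids the LPS response, high scores that it dampens it.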 Repeated entries: four replicate wells of each siRNA pool.

Knock-down of PRR14 (GeneID 78994) resulted in: TNF reporter robust z-score -2.21; active. With knock-down of PRR14 (GeneID 78994), the screen gave TNF reporter robust z-score -2.06; active. Against PRR14 (GeneID 78994), the values are TNF reporter robust z-score -2.01; active. Silencing of PRR14 (GeneID 78994) came out at: TNF reporter robust z-score -1.93; active. Knock-down of ADCY6 (GeneID 112) came out at: TNF reporter robust z-score 0.71; inactive. With knock-down of ADCY6 (GeneID 112), the screen gave TNF reporter robust z-score 0.03; inactive.

With knock-down of ADCY6 (GeneID 112), the record shows TNF reporter robust z-score 0.46; inactive. With knock-down of ADCY6 (GeneID 112), the screen gave TNF reporter robust z-score 0.96; inactive. IL17RA (GeneID 23765) showed TNF reporter robust z-score -0.28; inactive. With knock-down of IL17RA (GeneID 23765) the results were TNF reporter robust z-score 0.63; inactive. Depletion of IL17RA (GeneID 23765) resulted in: TNF reporter robust z-score 0.23; inactive. With knock-down of IL17RA (GeneID 23765) the results were TNF reporter robust z-score 0.84; inactive.

Depletion of DDX39B (GeneID 7919) came out at: TNF reporter robust z-score 2.23; inactive. DDX39B (GeneID 7919) scored TNF reporter robust z-score 0.2; inactive. Depletion of DDX39B (GeneID 7919) gave: TNF reporter robust z-score -0.45; inactive. DDX39B (GeneID 7919) scored TNF reporter robust z-score 0.8; inactive. USP40 (GeneID 55230) gave TNF reporter robust z-score 0.47; inactive. Knock-down of USP40 (GeneID 55230) gave: TNF reporter robust z-score 1.31; inactive.

After knock-down of USP40 (GeneID 55230) the results were TNF reporter robust z-score 1; inactive. Knock-down of USP40 (GeneID 55230) came out at: TNF reporter robust z-score 0.58; inactive. Depletion of TNRC6A (GeneID 27327) came out at: TNF reporter robust z-score 0.27; inactive. TNRC6A (GeneID 27327) gave TNF reporter robust z-score 1.23; inactive. Depletion of TNRC6A (GeneID 27327) gave: TNF reporter robust z-score -0.63; inactive. Against TNRC6A (GeneID 27327), the values are TNF reporter robust z-score 1.44; inactive.

Against TNP2 (GeneID 7142) the deposit lists TNF reporter robust z-score 0.08; inactive. TNP2 (GeneID 7142) gave TNF reporter robust z-score 1.35; inactive. Knock-down of TNP2 (GeneID 7142) resulted in: TNF reporter robust z-score 0.56; inactive. Against TNP2 (GeneID 7142), the entry reads TNF reporter robust z-score 1.69; inactive. After knock-down of SEC23A (GeneID 10484), the screen gave TNF reporter robust z-score -0.08; inactive. After knock-down of SEC23A (GeneID 10484), the record shows TNF reporter robust z-score 0.5; inactive.

With knock-down of SEC23A (GeneID 10484) the results were TNF reporter robust z-score 0.03; inactive. Knock-down of SEC23A (GeneID 10484) gave: TNF reporter robust z-score -0.05; inactive. SLC49A4 (GeneID 84925) scored TNF reporter robust z-score 0.1; inactive. Against SLC49A4 (GeneID 84925) the deposit lists TNF reporter robust z-score -0.14; inactive. Silencing of SLC49A4 (GeneID 84925) gave: TNF reporter robust z-score -0.25; inactive. For SLC49A4 (GeneID 84925), the entry reads TNF reporter robust z-score 0.59; inactive.

With knock-down of SAMD3 (GeneID 154075), the screen gave TNF reporter robust z-score 6.58; active. SAMD3 (GeneID 154075) showed TNF reporter robust z-score 1.32; inactive. Against SAMD3 (GeneID 154075), the values are TNF reporter robust z-score 0.46; inactive. For SAMD3 (GeneID 154075), the entry reads TNF reporter robust z-score 0.43; inactive. OR4F16 (GeneID 81399) showed TNF reporter robust z-score 1.13; inactive. Knock-down of OR4F16 (GeneID 81399) resulted in: TNF reporter robust z-score -0.72; inactive.

With knock-down of OR4F16 (GeneID 81399), the screen gave TNF reporter robust z-score -0.04; inactive. OR4F16 (GeneID 81399) gave TNF reporter robust z-score 1.77; inactive. Against AMOTL2 (GeneID 51421) the deposit lists TNF reporter robust z-score -1.06; inactive. With knock-down of AMOTL2 (GeneID 51421), the screen gave TNF reporter robust z-score 0.12; inactive. With knock-down of AMOTL2 (GeneID 51421), the screen gave TNF reporter robust z-score -1.58; active. AMOTL2 (GeneID 51421) gave TNF reporter robust z-score -0.54; inactive.

For GIMAP8 (GeneID 155038), the values are TNF reporter robust z-score -1.88; active. Knock-down of GIMAP8 (GeneID 155038) gave: TNF reporter robust z-score -1.98; active. GIMAP8 (GeneID 155038) gave TNF reporter robust z-score -1.45; inactive. Silencing of GIMAP8 (GeneID 155038) gave: TNF reporter robust z-score -1.21; inactive. Silencing of EMD (GeneID 2010) came out at: TNF reporter robust z-score -0.07; inactive. Depletion of EMD (GeneID 2010) gave: TNF reporter robust z-score -0.18; inactive.

Against EMD (GeneID 2010), the values are TNF reporter robust z-score 0.92; inactive. EMD (GeneID 2010) showed TNF reporter robust z-score -0.36; inactive. Silencing of ITCH (GeneID 83737) resulted in: TNF reporter robust z-score -0.5; inactive. After knock-down of ITCH (GeneID 83737), the record shows TNF reporter robust z-score -0.23; inactive. For ITCH (GeneID 83737) the deposit lists TNF reporter robust z-score 0.41; inactive. ITCH (GeneID 83737) showed TNF reporter robust z-score 0.78; inactive.

Called active, of those listed so far:
PRR14 (GeneID 78994) — TNF reporter robust z-score: -2.21; call: active
PRR14 (GeneID 78994) — TNF reporter robust z-score: -2.06; call: active
PRR14 (GeneID 78994) — TNF reporter robust z-score: -2.01; call: active
PRR14 (GeneID 78994) — TNF reporter robust z-score: -1.93; call: active
SAMD3 (GeneID 154075) — TNF reporter robust z-score: 6.58; call: active
AMOTL2 (GeneID 51421) — TNF reporter robust z-score: -1.58; call: active
GIMAP8 (GeneID 155038) — TNF reporter robust z-score: -1.88; call: active
GIMAP8 (GeneID 155038) — TNF reporter robust z-score: -1.98; call: active
